Measurements as given in patent US20110250207A1 (OREGON HEALTH AND SCIENCE UNIVERSITY, published 2011).
No constants are given. Whether binding was seen depends on the method and setting. For part of these data: A result given as binding can be weak or reduced; the word gives no strength.

Tests used:
[1] = biological target: fXI A2 domain fused to tissue plasminogen activator; test: immunoblot of fXI apple domain-tPA fusion proteins with 14E11 (FIG. 10B)
anteater fXI (anteater) = test: immunoprecipitation from serum with 14E11 beads, western blot with biotinylated 14E11
[2] = biological target: fXI A3 domain fused to tissue plasminogen activator; test: immunoblot of fXI apple domain-tPA fusion proteins with 14E11
[3] = biological target: fXI A1 domain fused to tissue plasminogen activator; test: as above
[4] = biological target: fXI A4 domain fused to tissue plasminogen activator; test: as above
tiger fXI (tiger) = test: immunoprecipitation from plasma with 14E11 beads, western blot with biotinylated 14E11
pig fXI (pig) = test: as above
raccoon fXI (raccoon) = test: as above
dog fXI (dog) = test: as above
horse fXI (horse) = test: as above
llama fXI (llama) = test: as above
baboon fXI (baboon) = test: as above
rabbit fXI (rabbit) = test: as above
[5] = biological target: African elephant fXI (African elephant); test: as above
cat fXI (cat) = test: as above

B1: monoclonal antibody 14E11 (antibody, V domains shown)
VH: QVQLEESGPGLVAPSQSLSITCTVSGFSLTGYGIYWVRQPPGKGLEWLGMIWGDGRTDYNSALKSRLSISKDNSKSQVFLKMNSLQTDDTARYYCARDYYGSKDYWGQGTTLTVSS
VL: DIVMTQSHKFMSTSVGDRVSITCKASQDVSTAVAWYQQKPGQSPKLLIYLTSYRNTGVPDRFTGSGSGTDFTFTISSVQAEDLAVYYCQQHYKTPYSFGGGTKLERLR
notes: also called anti-murine fXI IgG 14E11; anti-fXI IgG 14E11
In the case of B1, the binding [1] is reported as “binds”, the binding (anteater fXI (anteater)) is reported as “binds” and the binding [2] is reported as “no binding”. The binding [3] was “no binding”, the binding [4] was “no binding” and the binding (tiger fXI (tiger)) was “binds”. The binding (pig fXI (pig)) was “binds”, the binding (raccoon fXI (raccoon)) was “binds” and the binding (dog fXI (dog)) was “binds”. For the same binder, the binding (horse fXI (horse)) was “binds”, the binding (llama fXI (llama)) was “binds” and the binding (baboon fXI (baboon)) was “binds”. The binding (rabbit fXI (rabbit)) was “binds”, the binding [5] was “binds” and the binding (cat fXI (cat)) was “binds”.
